According to patent US20180207190A1, “COMPOSITION CONTAINING NAD FOR PREVENTING AND TREATING OBESITY OR IMPAIRED GLUCOSE TOLERANCE” (UNIVERSITY OF ULSAN FOUNDATION FOR INDUSTRY COOPERATION, priority 2015, published 2018):

Tested on: C57BL/6 mice
Assay: Feeding study, single intraperitoneal administration: food intake
Type: in vivo, mouse
Procedure: Mature male C57BL/6 mice were purchased from ORIENT BIO Inc. (Gyeonggi-do, Republic of Korea). Unless stated otherwise, the mice were freely fed a standard diet (Cargill Agri Purina, Inc., Seoul, Republic of Korea). To establish a diet-induced obesity (DIO) model, the mice were fed a HFD (60% fats, Research Diet Co., New Brunswick, N.J.) for 20 weeks. The animals were raised at a controlled temperature (22±1° C.) under a 12-hour light/dark cycle (a light condition from 08:00 a.m. to 8:00 p.m.) For experiments of single administration of NAD+ and NMN, 8-week-old mice were fasted overnight, and NAD+(purchased from Sigma, administered at 0.3, 1 and 3 mg/kg) or NMN (purchased from Sigma, administered at 30, 100, and 300 mg/kg) was intraperitoneally administered to the mice between 09:00 a.m. and 10:00 a.m. For ? chronic NAD+ treatment, NAD+(0.3 mg/kg body weight/day) was intraperitoneally injected once to the mice immediately before the lights went off for 4 weeks.
A predetermined dose of NAD+ or NMN was administered to C57BL/6 mice, which were fasted overnight, during an early light phase (09:00 to 11:00) by using a given method. The same amount of a vehicle (i.e., physiological saline) was administered to the control mice.

Compound: NC(=O)c1ccc[n+]([C@@H]2O[C@H](COP(=O)([O-])OP(=O)(O)OC[C@H]3O[C@@H](n4cnc5c(N)ncnc54)[C@H](O)[C@@H]3O)[C@@H](O)[C@H]2O)c1 [NAD+, nicotinamide adenine dinucleotide]
- effective dose of NAD+ relative to that of NMN (single IP injection, feed intake): about 1/300
- effective dose of NAD+ relative to effective dose of NMN (suppression of food intake and body weight, summary statement): at most 1/100
